Laboratory results taken from the supplement of paper PMC6078165.
± gives the standard deviation of the averaged measurements. The reference is the same well before dosing, and untreated signal decays as well.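 Fibroblast labels name human fibroblasts: mostly primary ones from tissues such as uterus (C12385, HUF), lung (H6013), bone (Hs27A), adrenal (HADF) and skin (WS1), plus mammary HMF and breast cancer-associated Hs343T. The cancer cells are basal-like or mesenchymal-like triple-negative breast cancer lines. The paper calls a changed response a hit when it shifts by more than 3x the replicate standard deviation. The tissue of the other fibroblasts is not given here.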

Test system: HCC1143
Assay: relative JC-1 red fluorescence (viability) vs pre-drug, coculture with fibroblast (fraction); higher = more viable cancer cells
Procedure: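 JC-1 labelled TNBC cells cocultured 1:1 (1,500 cells each) with CellTrace Violet stained primary or stromal fibroblasts in 384-well plates in FluoroBrite medium, treated with one of 42 anticancer drugs at 0.1, 1, 10 or 100 uM. JC-1 red fluorescence (mitochondrial integrity in cancer cells only) was read by plate reader every 8 h for 72 h. Values are normalised to each well's pre-drug value. The stock of one drug was tenfold lower, so its dose labels may be too high.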

CO[C@@]12[C@H](COC(N)=O)C3=C(C(=O)C(C)=C(N)C3=O)N1C[C@@H]1N[C@@H]12 [Mitomycin C]
relative JC-1 red fluorescence
Conditions | 8 h | 16 h | 24 h | 32 h | 40 h | 48 h | 56 h | 64 h | 72 h
10 µM, coculture fibroblast: C12385 | 0.839 ± 0.011 | 0.767 ± 0.014 | 0.6576 ± 0.0027 | 0.576 ± 0.0044 | 0.495 ± 0.026 | 0.438 ± 0.025 | 0.387 ± 0.018 | 0.362 ± 0.025 | 0.337 ± 0.027
10 µM, coculture fibroblast: H6013 | 0.7494 ± 0.0057 | 0.645 ± 0.015 | 0.6 ± 0.017 | 0.558 ± 0.024 | 0.47 ± 0.008 | 0.46 ± 0.0089 | 0.4159 ± 0.0026 | 0.3921 ± 0.003 | 0.327 ± 0.0016
10 µM, coculture fibroblast: H6019 | 0.804 ± 0.022 | 0.682 ± 0.0071 | 0.5962 ± 0.00065 | 0.495 ± 0.009 | 0.416 ± 0.0045 | 0.38 ± 0.014 | 0.338 ± 0.017 | 0.305 ± 0.0068 | 0.286 ± 0.0092
10 µM, coculture fibroblast: H6076 | 0.828 ± 0.01 | 0.8272 ± 0.002 | 0.775 ± 0.039 | 0.721 ± 0.07 | 0.685 ± 0.064 | 0.666 ± 0.092 | 0.623 ± 0.1 | 0.581 ± 0.12 | 0.583 ± 0.14
10 µM, coculture fibroblast: H6231 | 0.829 ± 0.014 | 0.839 ± 0.049 | 0.753 ± 0.057 | 0.653 ± 0.018 | 0.667 ± 0.033 | 0.631 ± 0.035 | 0.583 ± 0.028 | 0.555 ± 0.024 | 0.532 ± 0.012
10 µM, coculture fibroblast: HADF | 0.69681 ± 0.00034 | 0.615 ± 0.009 | 0.572 ± 0.0086 | 0.576 ± 0.0069 | 0.448 ± 0.0085 | 0.422 ± 0.015 | 0.386 ± 0.022 | 0.36 ± 0.028 | 0.324 ± 0.035
10 µM, coculture fibroblast: HCFa | 0.753 ± 0.023 | 0.652 ± 0.063 | 0.583 ± 0.09 | 0.531 ± 0.096 | 0.428 ± 0.084 | 0.405 ± 0.069 | 0.357 ± 0.073 | 0.332 ± 0.079 | 0.278 ± 0.079
10 µM, coculture fibroblast: HCPF | 0.802 ± 0.015 | 0.801 ± 0.013 | 0.734 ± 0.066 | 0.628 ± 0.11 | 0.625 ± 0.084 | 0.59 ± 0.091 | 0.564 ± 0.12 | 0.53 ± 0.13 | 0.53 ± 0.14
10 µM, coculture fibroblast: HHSteC | 0.8542 ± 0.0073 | 0.762 ± 0.066 | 0.732 ± 0.094 | 0.687 ± 0.1 | 0.578 ± 0.089 | 0.536 ± 0.086 | 0.487 ± 0.1 | 0.465 ± 0.12 | 0.407 ± 0.12
10 µM, coculture fibroblast: HMF | 0.8029 ± 0.0074 | 0.826 ± 0.028 | 0.728 ± 0.03 | 0.625 ± 0.049 | 0.628 ± 0.054 | 0.586 ± 0.077 | 0.518 ± 0.094 | 0.486 ± 0.096 | 0.454 ± 0.097
10 µM, coculture fibroblast: HPFa | 0.9133 ± 0.0019 | 0.817 ± 0.013 | 0.739 ± 0.024 | 0.627 ± 0.041 | 0.512 ± 0.043 | 0.471 ± 0.039 | 0.43 ± 0.043 | 0.406 ± 0.039 | 0.382 ± 0.037
10 µM, coculture fibroblast: HUF | 0.8848 ± 0.0027 | 0.78686 ± 0.0006 | 0.684 ± 0.059 | 0.534 ± 0.14 | 0.468 ± 0.15 | 0.436 ± 0.14 | 0.39 ± 0.12 | 0.358 ± 0.1 | 0.343 ± 0.094
10 µM, coculture fibroblast: Hs5 | 0.848 ± 0.019 | 0.899 ± 0.039 | 0.826 ± 0.015 | 0.76 ± 0.018 | 0.704 ± 0.024 | 0.662 ± 0.043 | 0.607 ± 0.046 | 0.577 ± 0.065 | 0.556 ± 0.084
10 µM, coculture fibroblast: Hs27A | 0.723 ± 0.057 | 0.675 ± 0.099 | 0.663 ± 0.12 | 0.705 ± 0.14 | 0.589 ± 0.13 | 0.592 ± 0.14 | 0.581 ± 0.17 | 0.564 ± 0.16 | 0.576 ± 0.22
10 µM, coculture fibroblast: Hs343T | 0.803 ± 0.011 | 0.8066 ± 0.0011 | 0.7351 ± 0.0068 | 0.6578 ± 0.0017 | 0.623 ± 0.012 | 0.58 ± 0.013 | 0.513 ± 0.015 | 0.484 ± 0.0066 | 0.448 ± 0.023
10 µM, coculture fibroblast: WS1 | 0.83539 ± 0.00079 | 0.726 ± 0.028 | 0.6506 ± 0.0029 | 0.553 ± 0.028 | 0.483 ± 0.027 | 0.442 ± 0.024 | 0.391 ± 0.028 | 0.368 ± 0.019 | 0.355 ± 0.02
100 µM, coculture fibroblast: C12385 | 0.679 ± 0.054 | 0.594 ± 0.068 | 0.547 ± 0.071 | 0.523 ± 0.07 | 0.48 ± 0.077 | 0.48 ± 0.076 | 0.483 ± 0.081 | 0.474 ± 0.071 | 0.478 ± 0.077
100 µM, coculture fibroblast: H6013 | 0.59 ± 0.019 | 0.487 ± 0.078 | 0.473 ± 0.07 | 0.453 ± 0.076 | 0.456 ± 0.076 | 0.475 ± 0.082 | 0.459 ± 0.084 | 0.455 ± 0.082 | 0.383 ± 0.075
100 µM, coculture fibroblast: H6019 | 0.601 ± 0.026 | 0.483 ± 0.0063 | 0.452 ± 0.015 | 0.408 ± 0.022 | 0.382 ± 0.027 | 0.376 ± 0.024 | 0.35 ± 0.031 | 0.344 ± 0.038 | 0.333 ± 0.04
100 µM, coculture fibroblast: H6076 | 0.713 ± 0.019 | 0.608 ± 0.038 | 0.544 ± 0.054 | 0.561 ± 0.047 | 0.485 ± 0.045 | 0.487 ± 0.049 | 0.471 ± 0.05 | 0.461 ± 0.049 | 0.48 ± 0.048
100 µM, coculture fibroblast: H6231 | 0.6753 ± 0.0062 | 0.584 ± 0.028 | 0.516 ± 0.024 | 0.537 ± 0.011 | 0.458 ± 0.017 | 0.447 ± 0.018 | 0.434 ± 0.022 | 0.421 ± 0.021 | 0.433 ± 0.022
100 µM, coculture fibroblast: HADF | 0.604 ± 0.038 | 0.495 ± 0.092 | 0.468 ± 0.12 | 0.456 ± 0.14 | 0.436 ± 0.15 | 0.449 ± 0.15 | 0.437 ± 0.15 | 0.434 ± 0.14 | 0.362 ± 0.12
100 µM, coculture fibroblast: HCFa | 0.588 ± 0.032 | 0.471 ± 0.023 | 0.437 ± 0.02 | 0.427 ± 0.021 | 0.417 ± 0.021 | 0.417 ± 0.017 | 0.403 ± 0.017 | 0.396 ± 0.012 | 0.34 ± 0.014
100 µM, coculture fibroblast: HCPF | 0.745 ± 0.019 | 0.644 ± 0.04 | 0.566 ± 0.071 | 0.554 ± 0.071 | 0.492 ± 0.058 | 0.478 ± 0.056 | 0.461 ± 0.058 | 0.444 ± 0.057 | 0.455 ± 0.063
100 µM, coculture fibroblast: HHSteC | 0.629 ± 0.025 | 0.545 ± 0.037 | 0.521 ± 0.045 | 0.484 ± 0.048 | 0.468 ± 0.063 | 0.471 ± 0.064 | 0.455 ± 0.065 | 0.451 ± 0.064 | 0.385 ± 0.06
100 µM, coculture fibroblast: HMF | 0.7179 ± 0.0028 | 0.62146 ± 0.00041 | 0.533 ± 0.0054 | 0.52103 ± 0.00047 | 0.463 ± 0.024 | 0.458 ± 0.019 | 0.444 ± 0.008 | 0.436 ± 0.0055 | 0.4425 ± 0.0005
100 µM, coculture fibroblast: HPFa | 0.695 ± 0.015 | 0.555 ± 0.011 | 0.523 ± 0.018 | 0.475 ± 0.018 | 0.434 ± 0.013 | 0.442 ± 0.019 | 0.417 ± 0.026 | 0.419 ± 0.028 | 0.412 ± 0.025
100 µM, coculture fibroblast: HUF | 0.65172 ± 0.00036 | 0.458 ± 0.07 | 0.395 ± 0.07 | 0.339 ± 0.076 | 0.303 ± 0.08 | 0.3 ± 0.086 | 0.276 ± 0.086 | 0.269 ± 0.092 | 0.259 ± 0.09
100 µM, coculture fibroblast: Hs5 | 0.77385 ± 0.00043 | 0.649 ± 0.011 | 0.591 ± 0.023 | 0.611 ± 0.014 | 0.5238 ± 0.002 | 0.509 ± 0.0092 | 0.502 ± 0.012 | 0.502 ± 0.018 | 0.523 ± 0.012
100 µM, coculture fibroblast: Hs27A | 0.585 ± 0.011 | 0.551 ± 0.053 | 0.546 ± 0.075 | 0.562 ± 0.1 | 0.531 ± 0.1 | 0.577 ± 0.11 | 0.56 ± 0.11 | 0.56 ± 0.11 | 0.455 ± 0.098
100 µM, coculture fibroblast: Hs343T | 0.746 ± 0.01 | 0.623 ± 0.0068 | 0.504 ± 0.0075 | 0.4984 ± 0.0025 | 0.42724 ± 0.00013 | 0.4123 ± 2.1e-05 | 0.3945 ± 0.0022 | 0.3902 ± 0.0019 | 0.401 ± 0.0087
100 µM, coculture fibroblast: WS1 | 0.6234 ± 0.0062 | 0.4597 ± 0.0021 | 0.416 ± 0.017 | 0.372 ± 0.015 | 0.352 ± 0.012 | 0.347 ± 0.017 | 0.335 ± 0.013 | 0.326 ± 0.018 | 0.323 ± 0.017
